Results are given in words; binding and its absence hold for the method and conditions named. Some entries that bind do so weakly or less than the wild type.
Molecular target: RAGE(1-404)-3xflag-eBFP (plasmid p605) on HepG2 cells
Experiment: flow cytometry, FITC-labelled EVs on fixed p605-HepG2 cells, 10,000-30,000 particles/cell

- binding: binds
Substance: A90-Fc EV (from UniProt P0DOX7 1-214)
